Laboratory results: PubChem BioAssay AID1159590 (NIAID, 2016)
Purpose: 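Finding genes that mouse macrophage TLR2 agonist signalling relies on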. Cell system: mouse RAW264.7 macrophage reporter cells expressing GFP-p65 and a Tnf promoter-mCherry. Reagent: single siRNA against mouse genes. Time to read-out: 48 to 72 hours after siRNA transfection, then 40 minutes of ligand. Challenge: Pam3CSK4 (TLR2/1 agonist) for 40 minutes before fixation; dose not given. Measured: 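p65 nuclear translocation measured by high-content imaging, shown for each siRNA as a robust z-score averaged across replicates, relative to negative controls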. Direction: p65 nuclear entry z-score: higher = more p65 moved into nuclei than in negative-control wells. Hit rule: In these data the active calls have p65 nuclear entry z-score, replicate mean at about -1.5 or lower, or at about 1.5 or higher. Meaning of the calls: active = strong change, up or down; inactive = little change.
Shown is an unselected part of 756 reagents. Of all reagents, 128 (17%) got an active call. 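Calls are two-sided: both reduced and increased p65 nuclear entry count as active.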 The numbers tell different reagents against one gene apart. The record does not give: the amount of reagent.

Tradd (TNFRSF1A-associated via death domain) #1 → p65 nuclear entry z-score, replicate mean = -2.4; outcome = active
Tradd (TNFRSF1A-associated via death domain) #2 → p65 nuclear entry z-score, replicate mean = 1.11; outcome = inactive
Tradd (TNFRSF1A-associated via death domain) #3 → p65 nuclear entry z-score, replicate mean = -0.778; outcome = inactive
Tradd (TNFRSF1A-associated via death domain) #4 → p65 nuclear entry z-score, replicate mean = 0.454; outcome = inactive
Tradd (TNFRSF1A-associated via death domain) #5 → p65 nuclear entry z-score, replicate mean = -0.844; outcome = inactive
Tradd (TNFRSF1A-associated via death domain) #6 → p65 nuclear entry z-score, replicate mean = -0.536; outcome = inactive
Pik3r2 (phosphoinositide-3-kinase regulatory subunit 2) #1 → p65 nuclear entry z-score, replicate mean = -0.184; outcome = inactive
Pik3r2 (phosphoinositide-3-kinase regulatory subunit 2) #2 → p65 nuclear entry z-score, replicate mean = 0.319; outcome = inactive
Pik3r2 (phosphoinositide-3-kinase regulatory subunit 2) #3 → p65 nuclear entry z-score, replicate mean = -2.48; outcome = active
Pik3r2 (phosphoinositide-3-kinase regulatory subunit 2) #4 → p65 nuclear entry z-score, replicate mean = 0.444; outcome = inactive
Pik3r2 (phosphoinositide-3-kinase regulatory subunit 2) #5 → p65 nuclear entry z-score, replicate mean = 0.623; outcome = inactive
Pik3r2 (phosphoinositide-3-kinase regulatory subunit 2) #6 → p65 nuclear entry z-score, replicate mean = 0.707; outcome = inactive
Pik3cg #1 → p65 nuclear entry z-score, replicate mean = -0.0129; outcome = inactive
Pik3cg #2 → p65 nuclear entry z-score, replicate mean = -0.884; outcome = inactive
Pik3cg #3 → p65 nuclear entry z-score, replicate mean = -0.263; outcome = inactive
Pik3cg #4 → p65 nuclear entry z-score, replicate mean = 0.49; outcome = inactive
Pik3cg #5 → p65 nuclear entry z-score, replicate mean = -0.305; outcome = inactive
Pik3cg #6 → p65 nuclear entry z-score, replicate mean = 3.13; outcome = active
Crebbp (CREB binding protein) #1 → p65 nuclear entry z-score, replicate mean = -0.481; outcome = inactive
Crebbp (CREB binding protein) #2 → p65 nuclear entry z-score, replicate mean = -1.28; outcome = inactive
Crebbp (CREB binding protein) #3 → p65 nuclear entry z-score, replicate mean = -0.714; outcome = inactive
Crebbp (CREB binding protein) #4 → p65 nuclear entry z-score, replicate mean = -0.554; outcome = inactive
Crebbp (CREB binding protein) #5 → p65 nuclear entry z-score, replicate mean = 4.11; outcome = active
Crebbp (CREB binding protein) #6 → p65 nuclear entry z-score, replicate mean = -0.0876; outcome = inactive
Tbk1 (TANK-binding kinase 1) #1 → p65 nuclear entry z-score, replicate mean = -1.35; outcome = inactive
Tbk1 (TANK-binding kinase 1) #2 → p65 nuclear entry z-score, replicate mean = 1.56; outcome = active
Tbk1 (TANK-binding kinase 1) #3 → p65 nuclear entry z-score, replicate mean = -0.709; outcome = inactive
Tbk1 (TANK-binding kinase 1) #4 → p65 nuclear entry z-score, replicate mean = 0.0805; outcome = inactive
Tbk1 (TANK-binding kinase 1) #5 → p65 nuclear entry z-score, replicate mean = -1.16; outcome = inactive
Tbk1 (TANK-binding kinase 1) #6 → p65 nuclear entry z-score, replicate mean = 0.512; outcome = inactive
Tlr9 (toll-like receptor 9) #1 → p65 nuclear entry z-score, replicate mean = -0.617; outcome = inactive
Tlr9 (toll-like receptor 9) #2 → p65 nuclear entry z-score, replicate mean = -0.904; outcome = inactive
Tlr9 (toll-like receptor 9) #3 → p65 nuclear entry z-score, replicate mean = 0.0545; outcome = inactive
Tlr9 (toll-like receptor 9) #4 → p65 nuclear entry z-score, replicate mean = -0.67; outcome = inactive
Tlr9 (toll-like receptor 9) #5 → p65 nuclear entry z-score, replicate mean = 0.268; outcome = inactive
Tlr9 (toll-like receptor 9) #6 → p65 nuclear entry z-score, replicate mean = -1.33; outcome = inactive
Irak1 (interleukin-1 receptor-associated kinase 1) #1 → p65 nuclear entry z-score, replicate mean = -1.38; outcome = inactive
Irak1 (interleukin-1 receptor-associated kinase 1) #2 → p65 nuclear entry z-score, replicate mean = 0.458; outcome = inactive
Irak1 (interleukin-1 receptor-associated kinase 1) #3 → p65 nuclear entry z-score, replicate mean = -1.55; outcome = active
Irak1 (interleukin-1 receptor-associated kinase 1) #4 → p65 nuclear entry z-score, replicate mean = -1.15; outcome = inactive
Irak1 (interleukin-1 receptor-associated kinase 1) #5 → p65 nuclear entry z-score, replicate mean = -0.499; outcome = inactive
Irak1 (interleukin-1 receptor-associated kinase 1) #6 → p65 nuclear entry z-score, replicate mean = 1.42; outcome = inactive
Ube2n (ubiquitin-conjugating enzyme E2N) #1 → p65 nuclear entry z-score, replicate mean = -0.136; outcome = inactive
Ube2n (ubiquitin-conjugating enzyme E2N) #2 → p65 nuclear entry z-score, replicate mean = -0.409; outcome = inactive
Ube2n (ubiquitin-conjugating enzyme E2N) #3 → p65 nuclear entry z-score, replicate mean = 0.209; outcome = inactive
Ube2n (ubiquitin-conjugating enzyme E2N) #4 → p65 nuclear entry z-score, replicate mean = 0.5; outcome = inactive
Ube2n (ubiquitin-conjugating enzyme E2N) #5 → p65 nuclear entry z-score, replicate mean = -0.726; outcome = inactive
Ube2n (ubiquitin-conjugating enzyme E2N) #6 → p65 nuclear entry z-score, replicate mean = 0.844; outcome = inactive

Targets above whose target name starts with C or c (6):
Crebbp (CREB binding protein) #1 → p65 nuclear entry z-score, replicate mean = -0.481; outcome = inactive
Crebbp (CREB binding protein) #2 → p65 nuclear entry z-score, replicate mean = -1.28; outcome = inactive
Crebbp (CREB binding protein) #3 → p65 nuclear entry z-score, replicate mean = -0.714; outcome = inactive
Crebbp (CREB binding protein) #4 → p65 nuclear entry z-score, replicate mean = -0.554; outcome = inactive
Crebbp (CREB binding protein) #5 → p65 nuclear entry z-score, replicate mean = 4.11; outcome = active
Crebbp (CREB binding protein) #6 → p65 nuclear entry z-score, replicate mean = -0.0876; outcome = inactive
